# Results are given in words; binding and its absence hold for the method and conditions named. In cells and extracts the contact can be indirect. A yes stands for co-enrichment or nearness to the bait. Other partners may have been found.
# Protein sequences, listed by entry. Tags and fused reporters are not part of them.
# UniProt P29341: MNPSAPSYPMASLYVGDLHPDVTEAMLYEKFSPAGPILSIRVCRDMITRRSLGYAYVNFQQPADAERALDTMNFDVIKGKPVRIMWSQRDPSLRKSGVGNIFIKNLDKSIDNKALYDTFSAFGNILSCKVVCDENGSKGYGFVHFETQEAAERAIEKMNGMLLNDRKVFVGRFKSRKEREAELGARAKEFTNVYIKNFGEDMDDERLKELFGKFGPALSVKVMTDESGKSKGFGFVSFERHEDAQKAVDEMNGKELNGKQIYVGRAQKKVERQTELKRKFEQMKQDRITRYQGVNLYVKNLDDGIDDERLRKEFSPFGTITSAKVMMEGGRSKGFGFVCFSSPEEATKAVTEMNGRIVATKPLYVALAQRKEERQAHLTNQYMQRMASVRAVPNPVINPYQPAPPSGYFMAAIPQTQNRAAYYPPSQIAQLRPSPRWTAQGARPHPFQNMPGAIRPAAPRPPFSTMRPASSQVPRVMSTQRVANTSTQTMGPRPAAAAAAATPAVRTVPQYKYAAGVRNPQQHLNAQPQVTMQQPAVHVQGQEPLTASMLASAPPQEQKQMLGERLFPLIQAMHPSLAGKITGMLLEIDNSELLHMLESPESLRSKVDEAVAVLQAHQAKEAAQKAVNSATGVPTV
# Target: T1, ADP-ribosylation factor collaborator (CARF) (mouse (endogenous in testis)) (UniProt Q8BI72)
# T1 sequence: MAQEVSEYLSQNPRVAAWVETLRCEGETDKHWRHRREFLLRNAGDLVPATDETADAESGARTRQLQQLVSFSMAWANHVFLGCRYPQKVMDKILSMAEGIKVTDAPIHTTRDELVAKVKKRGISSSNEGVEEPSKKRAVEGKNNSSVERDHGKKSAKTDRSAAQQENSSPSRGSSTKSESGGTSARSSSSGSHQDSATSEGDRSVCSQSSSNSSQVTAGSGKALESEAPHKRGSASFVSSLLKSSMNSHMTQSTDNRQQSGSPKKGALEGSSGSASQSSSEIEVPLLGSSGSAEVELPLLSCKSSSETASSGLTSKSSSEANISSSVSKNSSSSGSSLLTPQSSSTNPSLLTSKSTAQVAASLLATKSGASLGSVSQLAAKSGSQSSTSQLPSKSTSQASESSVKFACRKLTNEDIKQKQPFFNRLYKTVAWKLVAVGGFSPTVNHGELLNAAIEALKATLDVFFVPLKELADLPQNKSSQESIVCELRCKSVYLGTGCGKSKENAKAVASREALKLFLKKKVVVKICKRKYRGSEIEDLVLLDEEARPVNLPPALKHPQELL
# Assay: affinity purification with mass spectrometry; testis protein extracts of wild-type and Carf-/- mice in IP buffer incubated with antibodies or control IgG at 4°C overnight, protein A and protein G Dynabeads 6 h; SDS-PAGE, differing bands cut for mass spectrometry
substance,measurement,value
poly-A binding protein cytoplasmic 1 (PABPC1) (from UniProt P29341 1-636),binding,binds

# Source: PMC12040762
